Laboratory results taken from PubChem BioAssay AID540275 (National Center for Advancing Translational Sciences (NCATS), 2011).
The campaign covered roughly 320,000 compounds. About 620 (0.19%) were called active. The inconclusive results got no clear call from the source; some entries with a clear call stand among them for comparison. Rule as the data show it: active = activation above about 80%; inconclusive = between about 30% and that limit; inactive = weaker than that.

The chains behind the UniProt entries cited, without tags or fusion partners.
UniProt Q8NER1, whole entry, looked up: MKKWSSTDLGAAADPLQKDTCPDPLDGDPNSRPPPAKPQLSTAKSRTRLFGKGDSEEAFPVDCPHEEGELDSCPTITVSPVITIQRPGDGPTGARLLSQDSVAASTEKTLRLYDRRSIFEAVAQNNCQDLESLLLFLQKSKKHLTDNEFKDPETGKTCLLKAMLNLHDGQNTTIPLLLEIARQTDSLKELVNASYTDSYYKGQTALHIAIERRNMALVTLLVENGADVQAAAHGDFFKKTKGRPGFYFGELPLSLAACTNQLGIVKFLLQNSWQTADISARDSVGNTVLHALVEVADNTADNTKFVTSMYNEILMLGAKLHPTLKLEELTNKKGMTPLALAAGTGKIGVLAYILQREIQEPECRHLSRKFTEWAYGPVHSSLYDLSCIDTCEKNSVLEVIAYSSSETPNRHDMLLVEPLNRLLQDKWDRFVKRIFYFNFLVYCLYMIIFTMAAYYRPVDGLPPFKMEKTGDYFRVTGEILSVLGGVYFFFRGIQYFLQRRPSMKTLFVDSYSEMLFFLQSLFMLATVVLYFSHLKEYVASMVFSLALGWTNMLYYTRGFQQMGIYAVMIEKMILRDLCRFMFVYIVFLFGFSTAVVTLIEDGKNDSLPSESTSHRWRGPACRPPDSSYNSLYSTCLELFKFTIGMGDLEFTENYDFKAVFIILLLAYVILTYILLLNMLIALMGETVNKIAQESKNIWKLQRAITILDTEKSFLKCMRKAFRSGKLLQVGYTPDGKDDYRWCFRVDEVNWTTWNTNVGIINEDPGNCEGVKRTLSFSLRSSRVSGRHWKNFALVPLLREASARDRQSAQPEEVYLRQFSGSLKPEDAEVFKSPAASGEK

Each compound was assayed against Transient receptor potential cation channel subfamily V member 1 (Homo sapiens) (UniProt Q8NER1) (assay: HTS Assay for Compounds that Act as Agonists of the Vanilloid Receptor 1). Conditions: TRPV1-expressing cells, Fluo-8 calcium influx, agonist mode; at 8.33 µM, active compounds read high.
Procedure, shortened: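 Fluo-8 calcium influx in TRPV1-expressing cells, kinetic read (ex 480/em 520 nm). Compound added and read 3 min for agonist activity, followed by capsaicin at EC20 final and 2 min further read for enhancement.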
Also: 0% is about no effect.

SMILES	activation
CCCCCCCNC(=O)C1(CC2CC(c3ccc(Cl)cc3)=NO2)CCN(C(=O)C2(C)CC2)CC1 (stereo unspecified)	inactive: 0.725%
Cc1nn(C)c(Cl)c1NC(=O)OCc1ccc(Cl)cc1Cl	inactive: 8.04%
Cc1cccc(S(=O)(=O)Nc2cccc(-c3ccc(N4CCCCC4)nn3)c2)c1	inconclusive: 30.8%
Cc1cc(NC(=O)COC(=O)CC2CCCC2)c([N+](=O)[O-])cc1C	inactive: 18.2%
Cc1cc(C(=O)N2CCN(c3ccc([N+](=O)[O-])cc3)CC2)co1	inactive: 14%
Cc1ccccc1Nc1ncnc2c1cnn2Cc1ccccc1	inconclusive: 56.9%
Fc1ccc(Br)cc1C1C=C(c2ccc(Br)s2)Nc2ncnn21 (stereo unspecified)	inconclusive: 35.8%
COc1cc2[nH]c(=O)n(C3CCCCC3)c(=O)c2cc1OC	inactive: -2%
Cc1ccc(O)c(CNc2nc3ccccc3[nH]2)c1	inconclusive: 35.1%
Cn1c2ccccc2c2ncn(Cc3ccc(F)cc3)c(=O)c21	active: 80.3%
CC(Sc1nnc(-c2ccccc2Br)o1)C(=O)N1CCOCC1 (stereo unspecified)	inconclusive: 55.6%
Cc1ccc(-n2cc(CN3CCNC(=O)CC3)c(-c3cccc(C)c3)n2)cc1	inconclusive: 39.3%
CCN(CC(=O)Nc1ccccc1OC)C(=O)CC1CC2CCC1C2 (stereo unspecified)	inactive: 23.5%
CCOc1ccc(CN2CCN(Cc3nc(C(C)C)cs3)CC2CCO)cc1 (stereo unspecified)	inactive: -1.89%
O=C(c1ccc(-n2nc(C(F)(F)F)c3c2CCCC3)cc1)N1CCOCC1	inconclusive: 58.3%
Cc1ccccc1NC(=O)Nc1ccc2c(c1)CCC2	inconclusive: 50.4%
O=C(Nc1nnc(-c2ccncc2)o1)c1ccccc1F	inactive: 1.32%
O=C(NCc1cccnc1)Nc1cccc(Cl)c1Cl	inconclusive: 37.6%
Cc1ccc2c(CN3CC(C)CC(C)C3)cc(=O)oc2c1C (stereo unspecified)	inconclusive: 41%
O=C(c1ccc(Cn2cc(Br)cn2)o1)N1N=C(C(F)F)CC1(O)C(F)F (stereo unspecified)	inactive: -2.63%
CC(C)OC(=O)CC(=O)c1sc2nc3c(cc2c1N)CN(C)CC3	inactive: -0.27%
Cc1ccc(SC[C@H](c2ccccc2)N2CCN(CC(C)C)CCC2=O)cc1	inconclusive: 43.7%
CC1(Cc2cn(CCC#N)c3ccccc23)OCCO1	inactive: -1.31%

SMILES	activation
CCCc1ccc(C2C3=C(CC(C)(C)CC3=O)NC3=C2C(=O)c2ccccc23)cc1 (stereo unspecified)	inconclusive: 42.6%
CC(C)[C@@H](CO)NC(=O)c1ccc2c3n(nc2c1)-c1ccccc1CO3	inactive: -0.0227%
CCOC(=O)COc1c(-c2ccc(OC)cc2)oc2ccccc2c1=O	inconclusive: 35.1%
Cc1nc(N)nc(Nc2ccc(Cl)cc2)c1Br	inconclusive: 37.8%
O=C(Nc1ccccc1N1CCCCC1)c1ccc(F)c(S(=O)(=O)N2CCOCC2)c1	inconclusive: 33.7%
Cc1ccc(NC(=O)CN(Cc2ccco2)Cc2ccccc2O)cc1C	inconclusive: 53.1%
CC1CCc2c(nc3sc4c(c3c2N)CCCC4)C1 (stereo unspecified)	inconclusive: 33.1%
Cc1ccc(CN2CCSc3ccc(C(=O)N4CCOCC4)cc32)cc1	inconclusive: 44.3%
O=c1c2nnn(-c3ccc(Br)cc3)c2ncn1Cc1ccccn1	inconclusive: 40.9%
Cc1cc(N/N=C/c2ccc(O)cc2O)nc(-c2ccccc2O)n1	inconclusive: 55.3%
O=C1OC(c2ccccc2)=C/C1=C/N1CCCCC1	active: 80.9%
Cc1cccc(-c2cc3c(N=O)c4ccccc4c-3n[nH]2)c1	inconclusive: 54.6%
CC(C)=CCSc1nnc([C@@H](NC(=O)OC(C)(C)C)C(C)C)o1	inconclusive: 59.6%
O=C(NCc1ccc(Cl)cc1)N1CCN(S(=O)(=O)c2ccccc2)CC1	inconclusive: 57.9%
CCNc1ccc(S(=O)(=O)N(C)C)cc1NCC(=O)Nc1ccc(Br)cc1F	inconclusive: 40.6%
Cc1cc(CCN2CCC(=O)NC2=S)ccc1OC(C)C	inconclusive: 39.5%
CSc1ccccc1N=Cc1nc(-c2ccccc2)oc1O	inconclusive: 33.5%
Cc1c(C(=O)N2CCC(C)CC2)sc2ncnc(N(C)c3ccccc3)c12	inconclusive: 48.2%
CCOC(=O)c1cc2sc(C)cc2n1CC(=O)NCc1ccc(F)cc1	inconclusive: 30.5%
O=C(OCC1COc2ccccc2O1)c1ccccc1F (stereo unspecified)	inconclusive: 39.4%
CCCCNC(=O)c1cc2cccc([N+](=O)[O-])c2[nH]1	inconclusive: 30.4%
COc1ccc(/C=N/NC(=O)c2ccc3c(c2)OCO3)cc1	inconclusive: 78.6%
COc1ccccc1C(=O)NCCSCc1c(F)cccc1Cl	inconclusive: 46.3%

Individual results from the list.
In activation, O=C(Nc1nnc(-c2ccncc2)o1)c1ccccc1F is entered as inactive: 1.32%
In activation, CCCc1ccc(C2C3=C(CC(C)(C)CC3=O)NC3=C2C(=O)c2ccccc23)cc1 (stereo unspecified) is entered as inconclusive: 42.6%

Remaining list, next part.

SMILES	activation
CC(C(=O)N(C)C1CCS(=O)(=O)C1)N1C(=O)/C(=C/c2ccc(F)cc2)SC1=S (stereo unspecified)	inactive: -6.74%
CCOc1ccc(NC(=S)NC(=O)c2cccnc2)c([N+](=O)[O-])c1	inactive: 1.37%
COC(=O)c1ccccc1NC(=O)c1noc2c1CCC2	inconclusive: 43.1%
Cc1cc(=O)oc2c(CN3CCN(C)CC3)c(O)c(Cl)cc12	inactive: -4.35%
O=[N+]([O-])c1ccc(N2N=C(c3ccccc3)CC2c2ccccc2O)cc1 (stereo unspecified)	inconclusive: 41.4%
CCN(CC)c1ccc2cc(S(=O)(=O)c3ccc(Cl)cc3)c(=O)oc2c1	inconclusive: 65.9%
O=C(Nc1cccnc1)c1cc2c(s1)-c1ccccc1OC2	inactive: -3.02%
CSc1ncccc1C(=O)NC1CCCc2c1cnn2-c1ccc(C)c(C)c1 (stereo unspecified)	inconclusive: 42.8%
CC(Cc1cccs1)NC(=S)Nc1ccc(F)cc1 (stereo unspecified)	inconclusive: 48.1%
Fc1cccc(NC(=S)Nc2cccc3ccccc23)c1	inactive: 0.207%
CC(C)(C)NC(=O)Nc1cccc(Cl)c1Cl	inconclusive: 33.3%
C[C@H](NC(=O)c1nc[nH]c1C(=O)NCc1ccccc1)C(=O)OCc1ccccc1	inactive: 10.2%
CCc1ccc(-c2cc(C)no2)cc1S(=O)(=O)NCCCN1CCN(c2ccccc2)CC1	inactive: 17.2%
CCc1cc2ccc(OC)cc2nc1SCC(=O)N1CCN(C(=O)c2ccco2)CC1	inconclusive: 32.6%
O=C(Nc1ccccc1C(=O)Nc1cccnc1)c1ccccc1	inconclusive: 31.6%
Cc1cc2nc(SCC(=O)N(C)C)c3c(c2cc1C)CCCC3	inactive: 26.7%
CCC(C)NC(=O)CCn1c(-c2ccc(F)cc2)cc(C(C)=O)c1C (stereo unspecified)	inconclusive: 32.3%
CC(C)c1ccc(/C=N/NC(=O)CCNC(=O)c2ccccc2)cc1	inconclusive: 44.5%
O=C1C=C(c2ccc(Cl)c(C(F)(F)F)c2)C[C@@H](c2ccc3c(c2)OCO3)C1	inconclusive: 44.1%
COC(=O)C1=CN(Cc2ccccc2)C=C(C(=O)OC)C1c1ccc(OC)c(OC)c1	inconclusive: 68.8%
CN1C(C(=O)NCc2ccc(OC(F)(F)F)cc2)CC2Cn3c(nc4ccccc43)C21 (stereo unspecified)	inactive: 11.9%
COc1ccc(CCNC(=O)Cc2ccc(OC)c(OC)c2)cc1OC	inactive: 10.5%
COc1ccc(N=C2S/C(=C\c3ccc(Cl)c([N+](=O)[O-])c3)C(=O)N2CCN(C)C)cc1	inactive: 3.78%

Molecules from the list above containing a tert-butyl group, in the order listed:
SMILES	activation
CC(C)=CCSc1nnc([C@@H](NC(=O)OC(C)(C)C)C(C)C)o1	inconclusive: 59.6%
CC(C)(C)NC(=O)Nc1cccc(Cl)c1Cl	inconclusive: 33.3%

Going on with the list.

SMILES	activation
COc1ccc(C(=O)Nn2c(SCC(=O)N3CCC(C)CC3)nc3ccccc3c2=O)cc1	inconclusive: 74.5%
Cc1ccc(C(=O)O/N=C(\N)c2ccccn2)cc1	inconclusive: 56.3%
CCCCc1cc(=O)oc2cc(C)cc(O)c12	inactive: 14.7%
CN1CCN(C(=O)/C=C/c2cn(-c3ccccc3)nc2-c2ccc3c(c2)OCCO3)CC1	inconclusive: 60.8%
CCOc1ccc(CCNC(=O)c2cc3c(s2)CS(=O)(=O)C3)cc1OCC	inconclusive: 35.2%
CCCCN1C(=O)c2ccc(C(=O)NCc3ccco3)cc2C1=O	inconclusive: 39.2%
COc1ccc(NC(=O)COC(=O)CC2CCCCC2)cc1	inconclusive: 40%
CC(C)(C)SCCSC1=CC(=O)CC(c2ccccc2)C1 (stereo unspecified)	inconclusive: 79.4%
COc1ccc(NC2c3ncccc3C(=O)N2Cc2cccs2)cc1 (stereo unspecified)	inconclusive: 30.9%
O=C(CSc1ccccc1Cl)N1CCC(c2nc3ccccc3s2)CC1	inconclusive: 68.4%
CCN(CC(=O)NC1CCS(=O)(=O)C1)S(=O)(=O)c1c(C)c(C)cc(C)c1C (stereo unspecified)	inactive: 3.8%
CCOc1cc(/C=C2\CCCc3c2nc2ccccc2c3C(=O)O)ccc1OC	active: 80.9%
Cc1nn(CCc2nn[nH]n2)c2nc(-c3ccc(Br)cc3)cc(C(F)(F)F)c12	inactive: -2.7%
O=C(C1=C[C@@H](c2ccc(C(F)(F)F)cc2)C[C@@H](OCc2ccc(CO)cc2)O1)N1CCN(Cc2ccc3c(c2)OCO3)CC1	inconclusive: 58.7%
COC(=O)c1ccc(/C=C(\C#N)c2ccccn2)cc1	inconclusive: 36.5%
CCOC(=O)c1cc(NC(=O)c2cc(C)on2)cc(C(=O)OCC)c1	inconclusive: 36.2%
O=C(COc1ccc2ccccc2c1Br)N1CCOCC1	inconclusive: 46.8%
CCc1nc2ccccc2n1CCc1ccccc1	inconclusive: 57.6%
CCC(Sc1nc(C)cc(=O)[nH]1)C(=O)Nc1nc(-c2ccccc2)cs1 (stereo unspecified)	inactive: -0.112%
CCCCNC(=O)/C=C/c1ccc(OC)c(Br)c1	inconclusive: 46.5%
CCCCn1c(CN2CCN(c3cccc(Cl)c3)CC2)nc2c1c(=O)n(C)c(=O)n2C	inactive: 1.27%
CCOC(=O)Cc1csc(/N=C/c2c(O)n(-c3ccccc3C(F)(F)F)c(=O)c3ccccc23)n1	inactive: 17.8%
